{"sequences": {"note": "Chains of the proteins cited; added tags and fusions are not shown. Lines headed by an entry give the natural chain unless they say otherwise; changes in a name come on top. Residues count along the entry.", "UniProt O15123, residues 19-496": "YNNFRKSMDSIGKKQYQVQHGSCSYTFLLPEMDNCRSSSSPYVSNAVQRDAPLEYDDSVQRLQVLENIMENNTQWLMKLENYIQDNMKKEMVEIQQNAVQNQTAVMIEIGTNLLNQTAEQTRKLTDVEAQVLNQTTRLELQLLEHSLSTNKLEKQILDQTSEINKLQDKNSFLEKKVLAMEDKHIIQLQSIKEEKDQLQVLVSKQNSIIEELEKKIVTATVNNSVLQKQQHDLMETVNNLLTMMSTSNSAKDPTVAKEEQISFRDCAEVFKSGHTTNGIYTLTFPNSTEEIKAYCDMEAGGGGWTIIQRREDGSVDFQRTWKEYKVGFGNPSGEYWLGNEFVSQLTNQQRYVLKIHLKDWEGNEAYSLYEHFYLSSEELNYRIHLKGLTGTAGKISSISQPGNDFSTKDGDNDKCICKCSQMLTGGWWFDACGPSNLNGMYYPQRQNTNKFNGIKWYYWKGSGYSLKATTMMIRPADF"}, "source": "patent EP4628097A1", "about": "(Innovent Biologics (Suzhou) Co., Ltd., dated 2025)", "binders": {"B1": {"name": "IEX04-008 (bispecific antibody)", "chain": "EVQLLESGGGLVQPGGSLRLSCAASGSIFSINAMGWHRQAPGKQRELVATMIGGSSTFYAESVQGRFTISRDNSKNTVYLQMNSLRAEDTAVYYCYADVTGRSGTSIWNKRDDYWGQGTQVTVSSGGGGSGGGGSEVQLLESGGGLVQPGGSLRLSCAASGSIFSINAMGWHRQAPGKQRELVATMIGGSSTFYAESVQGRFTISRDNSKNTVYLQMNSLRAEDTAVYYCYADVTGRSGTSIWNKRDDYWGQGTQVTVSSGGGGSGGGGSEVQLLESGGGLVQPGGSLRLSCAASGFALDYYAIGWFRQAPGKGLEGVSCISSGEGSTYYADSVKGRFTISRDNSKNTVYLQMNSLRAEDTAVYYCATDSRGDDVACEGLRRNEYDYWGQGTLVTVSS", "notes": "expressed in 293 cells; also called LA46E11.8 (VHH) + linker + LA46E11.8 (VHH) + LA24C11.10"}}, "target": "hAng2-Fc (Beijing Sino Biological, Catalog No. 10691-H02H) (human) (UniProt O15123)", "assay": "flow cytometry blocking: hAng2-Fc on 293-Tie2 cells, antibody titrated from 400 nM", "note": "Results are given in words; binding and its absence hold for the method and conditions named. Some entries that bind do so weakly or less than the wild type."}
{"binder": "B1", "values": [{"measurement": "binding", "value": "binds"}]}
